# Results: the supplement of paper PMC10849652
# The chains behind the UniProt entries cited, without tags or fusion partners. Where a name states a change or a piece, a line headed by the entry shows the natural chain unless it says otherwise.
# UniProt Q9Y587: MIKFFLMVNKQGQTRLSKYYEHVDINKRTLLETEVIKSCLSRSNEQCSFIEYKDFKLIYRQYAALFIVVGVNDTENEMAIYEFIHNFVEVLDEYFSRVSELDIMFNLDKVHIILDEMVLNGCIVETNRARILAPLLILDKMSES
# UniProt P09525: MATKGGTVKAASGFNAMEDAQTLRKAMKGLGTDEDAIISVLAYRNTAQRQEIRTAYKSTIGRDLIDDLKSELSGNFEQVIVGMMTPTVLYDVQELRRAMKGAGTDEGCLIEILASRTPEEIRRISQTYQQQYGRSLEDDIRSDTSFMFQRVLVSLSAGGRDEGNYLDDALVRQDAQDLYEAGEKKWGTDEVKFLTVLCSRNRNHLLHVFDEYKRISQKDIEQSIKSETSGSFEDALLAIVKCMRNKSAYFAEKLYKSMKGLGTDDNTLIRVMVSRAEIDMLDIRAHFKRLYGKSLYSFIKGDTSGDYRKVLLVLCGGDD
# UniProt Q9BTT0: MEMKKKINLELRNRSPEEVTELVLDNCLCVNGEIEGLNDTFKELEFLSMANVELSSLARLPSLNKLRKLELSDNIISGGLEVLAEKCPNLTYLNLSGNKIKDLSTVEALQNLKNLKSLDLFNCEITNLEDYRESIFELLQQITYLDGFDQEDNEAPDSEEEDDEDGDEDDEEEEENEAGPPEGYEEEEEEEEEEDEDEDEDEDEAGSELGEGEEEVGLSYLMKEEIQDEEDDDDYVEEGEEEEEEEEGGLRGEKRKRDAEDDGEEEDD
# UniProt Q9BXS5: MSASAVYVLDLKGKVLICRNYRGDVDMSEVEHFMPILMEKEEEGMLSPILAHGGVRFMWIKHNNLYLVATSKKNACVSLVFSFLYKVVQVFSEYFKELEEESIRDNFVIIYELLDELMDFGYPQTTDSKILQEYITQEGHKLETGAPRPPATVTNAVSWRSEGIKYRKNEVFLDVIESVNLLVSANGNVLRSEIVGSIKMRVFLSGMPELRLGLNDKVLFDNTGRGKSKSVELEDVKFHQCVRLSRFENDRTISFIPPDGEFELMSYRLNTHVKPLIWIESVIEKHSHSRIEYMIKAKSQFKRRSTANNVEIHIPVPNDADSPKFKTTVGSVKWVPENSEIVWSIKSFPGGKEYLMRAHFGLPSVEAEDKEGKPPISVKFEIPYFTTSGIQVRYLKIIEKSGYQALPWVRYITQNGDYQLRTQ
# UniProt P39687: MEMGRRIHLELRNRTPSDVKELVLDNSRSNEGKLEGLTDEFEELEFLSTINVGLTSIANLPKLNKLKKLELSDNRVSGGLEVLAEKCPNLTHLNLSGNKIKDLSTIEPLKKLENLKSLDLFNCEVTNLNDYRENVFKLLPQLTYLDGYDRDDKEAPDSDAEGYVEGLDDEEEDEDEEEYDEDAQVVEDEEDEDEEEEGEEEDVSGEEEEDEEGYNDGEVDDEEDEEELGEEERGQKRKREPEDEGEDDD
# UniProt Q9Y2T2: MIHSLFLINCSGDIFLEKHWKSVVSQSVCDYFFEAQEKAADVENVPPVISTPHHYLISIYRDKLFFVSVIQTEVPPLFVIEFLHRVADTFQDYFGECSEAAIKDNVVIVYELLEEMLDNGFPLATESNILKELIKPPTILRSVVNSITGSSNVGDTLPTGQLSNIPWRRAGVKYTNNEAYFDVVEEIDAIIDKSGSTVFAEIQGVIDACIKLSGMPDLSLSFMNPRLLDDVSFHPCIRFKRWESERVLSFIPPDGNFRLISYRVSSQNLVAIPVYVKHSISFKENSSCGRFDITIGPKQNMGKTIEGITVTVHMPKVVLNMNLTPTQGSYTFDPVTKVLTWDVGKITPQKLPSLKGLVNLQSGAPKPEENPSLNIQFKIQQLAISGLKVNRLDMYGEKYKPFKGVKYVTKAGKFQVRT
# UniProt Q9UNK9: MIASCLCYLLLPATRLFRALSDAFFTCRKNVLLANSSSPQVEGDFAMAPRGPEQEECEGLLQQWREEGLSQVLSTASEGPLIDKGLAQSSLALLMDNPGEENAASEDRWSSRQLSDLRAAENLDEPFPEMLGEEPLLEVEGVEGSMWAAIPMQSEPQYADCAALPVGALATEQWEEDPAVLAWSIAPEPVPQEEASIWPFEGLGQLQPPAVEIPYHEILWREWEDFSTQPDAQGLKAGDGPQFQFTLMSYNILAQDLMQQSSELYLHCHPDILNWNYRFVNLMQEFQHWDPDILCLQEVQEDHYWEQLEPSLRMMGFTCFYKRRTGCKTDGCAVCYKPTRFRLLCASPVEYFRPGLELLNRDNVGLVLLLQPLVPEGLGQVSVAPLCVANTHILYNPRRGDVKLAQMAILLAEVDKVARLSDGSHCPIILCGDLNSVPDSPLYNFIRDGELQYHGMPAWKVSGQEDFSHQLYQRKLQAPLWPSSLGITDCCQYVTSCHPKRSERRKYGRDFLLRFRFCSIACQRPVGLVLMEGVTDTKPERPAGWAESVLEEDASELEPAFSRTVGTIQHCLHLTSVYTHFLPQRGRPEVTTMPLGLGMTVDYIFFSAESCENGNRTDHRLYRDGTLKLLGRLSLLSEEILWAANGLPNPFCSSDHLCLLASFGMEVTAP
# UniProt O75179: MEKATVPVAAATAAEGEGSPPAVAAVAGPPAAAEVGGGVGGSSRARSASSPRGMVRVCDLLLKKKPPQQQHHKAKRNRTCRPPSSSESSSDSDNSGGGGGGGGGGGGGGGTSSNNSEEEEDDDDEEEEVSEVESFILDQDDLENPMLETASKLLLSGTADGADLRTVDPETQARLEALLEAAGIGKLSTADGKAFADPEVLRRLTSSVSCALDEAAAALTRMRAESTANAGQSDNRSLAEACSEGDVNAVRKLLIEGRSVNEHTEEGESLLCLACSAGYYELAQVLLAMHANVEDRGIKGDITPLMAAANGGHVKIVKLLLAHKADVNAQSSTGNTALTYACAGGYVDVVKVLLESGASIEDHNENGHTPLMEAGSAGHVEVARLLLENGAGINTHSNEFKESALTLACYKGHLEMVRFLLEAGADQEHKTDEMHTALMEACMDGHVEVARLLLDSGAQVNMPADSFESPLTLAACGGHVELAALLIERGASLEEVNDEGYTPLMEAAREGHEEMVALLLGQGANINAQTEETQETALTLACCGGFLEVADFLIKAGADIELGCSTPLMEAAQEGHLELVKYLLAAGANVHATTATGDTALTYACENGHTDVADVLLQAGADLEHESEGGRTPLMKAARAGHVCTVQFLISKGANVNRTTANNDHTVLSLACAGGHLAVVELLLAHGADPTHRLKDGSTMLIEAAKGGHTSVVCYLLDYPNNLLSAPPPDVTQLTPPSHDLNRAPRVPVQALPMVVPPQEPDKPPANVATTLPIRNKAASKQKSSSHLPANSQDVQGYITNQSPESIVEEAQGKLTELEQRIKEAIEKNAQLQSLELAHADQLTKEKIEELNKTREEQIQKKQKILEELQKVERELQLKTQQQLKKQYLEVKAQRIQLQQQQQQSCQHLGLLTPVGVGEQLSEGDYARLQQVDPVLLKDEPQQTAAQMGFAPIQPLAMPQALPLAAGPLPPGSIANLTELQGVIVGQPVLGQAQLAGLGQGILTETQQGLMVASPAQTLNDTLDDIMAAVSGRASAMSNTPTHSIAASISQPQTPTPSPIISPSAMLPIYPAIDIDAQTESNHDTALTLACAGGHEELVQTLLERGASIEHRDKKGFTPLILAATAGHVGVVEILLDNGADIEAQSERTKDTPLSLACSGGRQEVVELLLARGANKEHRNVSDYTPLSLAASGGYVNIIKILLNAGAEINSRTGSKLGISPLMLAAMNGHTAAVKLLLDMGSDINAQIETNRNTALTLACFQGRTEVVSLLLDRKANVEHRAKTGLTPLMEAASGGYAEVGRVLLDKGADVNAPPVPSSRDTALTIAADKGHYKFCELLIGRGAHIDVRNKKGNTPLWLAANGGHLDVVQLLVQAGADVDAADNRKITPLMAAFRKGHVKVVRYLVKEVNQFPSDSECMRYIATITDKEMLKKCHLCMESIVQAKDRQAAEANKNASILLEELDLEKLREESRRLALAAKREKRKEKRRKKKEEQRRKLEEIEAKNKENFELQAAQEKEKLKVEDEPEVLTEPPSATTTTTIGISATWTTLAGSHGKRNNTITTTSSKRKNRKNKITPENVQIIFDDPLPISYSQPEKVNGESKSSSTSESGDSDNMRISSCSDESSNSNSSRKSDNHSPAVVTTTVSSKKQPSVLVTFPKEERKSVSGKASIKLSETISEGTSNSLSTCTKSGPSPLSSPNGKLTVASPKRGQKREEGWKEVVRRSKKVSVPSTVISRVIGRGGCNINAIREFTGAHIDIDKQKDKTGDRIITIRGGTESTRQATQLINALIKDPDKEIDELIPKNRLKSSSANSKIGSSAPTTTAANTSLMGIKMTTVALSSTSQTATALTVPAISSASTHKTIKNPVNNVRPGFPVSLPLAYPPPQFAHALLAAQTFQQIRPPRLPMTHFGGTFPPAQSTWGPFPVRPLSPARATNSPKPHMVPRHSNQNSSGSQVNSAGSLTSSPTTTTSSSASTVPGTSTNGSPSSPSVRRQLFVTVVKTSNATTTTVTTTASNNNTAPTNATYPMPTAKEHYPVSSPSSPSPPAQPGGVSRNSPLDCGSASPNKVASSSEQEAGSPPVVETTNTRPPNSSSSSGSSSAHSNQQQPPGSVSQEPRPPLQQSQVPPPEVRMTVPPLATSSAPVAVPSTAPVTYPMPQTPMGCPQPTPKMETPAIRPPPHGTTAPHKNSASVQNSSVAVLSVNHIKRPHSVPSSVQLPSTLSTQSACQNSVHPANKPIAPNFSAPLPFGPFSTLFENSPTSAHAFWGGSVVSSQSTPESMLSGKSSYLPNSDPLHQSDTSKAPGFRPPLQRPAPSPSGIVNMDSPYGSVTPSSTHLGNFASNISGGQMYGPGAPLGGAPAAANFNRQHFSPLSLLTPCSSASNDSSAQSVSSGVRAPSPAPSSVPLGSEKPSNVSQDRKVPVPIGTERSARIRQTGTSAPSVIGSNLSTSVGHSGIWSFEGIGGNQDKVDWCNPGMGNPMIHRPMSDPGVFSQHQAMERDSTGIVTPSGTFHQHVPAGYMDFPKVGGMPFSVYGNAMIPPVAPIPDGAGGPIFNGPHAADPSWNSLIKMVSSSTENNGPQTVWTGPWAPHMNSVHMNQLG
# UniProt P61966: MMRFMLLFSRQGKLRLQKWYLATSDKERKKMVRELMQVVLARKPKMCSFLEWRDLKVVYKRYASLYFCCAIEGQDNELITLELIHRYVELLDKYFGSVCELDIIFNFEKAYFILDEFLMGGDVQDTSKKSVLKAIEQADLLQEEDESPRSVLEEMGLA
# UniProt P02654: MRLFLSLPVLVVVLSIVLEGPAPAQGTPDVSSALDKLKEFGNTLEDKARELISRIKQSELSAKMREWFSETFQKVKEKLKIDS
# UniProt Q9P2R3: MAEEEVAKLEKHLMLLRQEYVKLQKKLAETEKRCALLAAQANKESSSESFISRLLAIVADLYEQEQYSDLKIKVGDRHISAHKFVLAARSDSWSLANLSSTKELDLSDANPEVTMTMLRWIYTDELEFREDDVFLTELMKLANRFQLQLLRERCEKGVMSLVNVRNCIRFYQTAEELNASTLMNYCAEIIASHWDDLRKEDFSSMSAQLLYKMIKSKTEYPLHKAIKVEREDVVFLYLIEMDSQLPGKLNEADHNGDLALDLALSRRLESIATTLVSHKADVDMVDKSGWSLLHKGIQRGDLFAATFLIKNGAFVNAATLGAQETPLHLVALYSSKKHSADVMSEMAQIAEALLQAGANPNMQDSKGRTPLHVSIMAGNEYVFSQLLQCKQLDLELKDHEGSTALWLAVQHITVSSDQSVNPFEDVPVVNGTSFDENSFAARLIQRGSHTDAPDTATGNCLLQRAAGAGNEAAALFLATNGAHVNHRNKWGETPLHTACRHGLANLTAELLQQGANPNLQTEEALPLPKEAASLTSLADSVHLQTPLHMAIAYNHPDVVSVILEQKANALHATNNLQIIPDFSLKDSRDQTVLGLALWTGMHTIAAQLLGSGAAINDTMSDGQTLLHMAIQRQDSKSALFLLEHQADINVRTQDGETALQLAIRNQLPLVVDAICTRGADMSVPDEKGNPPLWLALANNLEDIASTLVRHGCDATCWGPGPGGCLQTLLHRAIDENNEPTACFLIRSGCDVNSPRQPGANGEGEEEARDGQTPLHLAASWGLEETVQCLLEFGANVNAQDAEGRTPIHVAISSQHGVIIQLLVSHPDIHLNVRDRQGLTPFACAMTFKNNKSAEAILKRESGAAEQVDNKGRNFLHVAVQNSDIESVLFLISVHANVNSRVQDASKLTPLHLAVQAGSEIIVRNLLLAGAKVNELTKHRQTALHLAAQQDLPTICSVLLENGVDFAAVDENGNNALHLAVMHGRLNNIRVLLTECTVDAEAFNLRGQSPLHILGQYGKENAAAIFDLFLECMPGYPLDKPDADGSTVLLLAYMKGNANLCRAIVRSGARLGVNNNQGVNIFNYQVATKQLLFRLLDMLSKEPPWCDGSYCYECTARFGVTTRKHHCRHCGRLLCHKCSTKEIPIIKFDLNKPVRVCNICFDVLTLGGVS
# The list shows a part of the results.
# Legend:
# Assay in all cases: log2 fold change, soluble protein after heating vs DMSO (PISA); higher = thermal stabilisation; K562 cells, 10 uM, 30 min; active = over 0.2 and 3.5 SD of the protein, either way, in both replicates (recomputed)
# [1] = compound: COC1=CC=C(C=C1)CN2C=CC3=C2C=C(C=C3)C(=O)NO
# In short: (§1)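 Soluble protein was quantified by TMTpro 16plex LC-MS/MS after channel sums were equalised. It was obtained as the supernatant after 21,000xg for 90 min from pooled aliquots of K562 cells (2×10^6 cells/mL, 10 μM compound, 30 min) heated for 3 min across 48°C-58°C and extracted in PBS with 0.5% NP-40 at 4°C. Thermal stability values are relative to control samples and come from duplicates. They are given as log2 fold changes.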
# filanesib = compound: CON(C)C(=O)N1N=C(c2cc(F)ccc2F)S[C@@]1(CCCN)c1ccccc1 [filanesib]
# In short: as §1
# zotarolimus = compound: CO[C@H]1C[C@@H]2CC[C@@H](C)[C@@](O)(O2)C(=O)C(=O)N2CCCC[C@H]2C(=O)O[C@H]([C@H](C)C[C@@H]2CC[C@H](n3cnnn3)[C@H](OC)C2)CC(=O)[C@H](C)/C=C(\C)[C@@H](O)[C@@H](OC)C(=O)[C@H](C)C[C@H](C)/C=C/C=C/C=C/1C [zotarolimus]
# In short: as §1
# idasanutlin = compound: COc1cc(C(=O)O)ccc1NC(=O)[C@@H]1N[C@@H](CC(C)(C)C)[C@](C#N)(c2ccc(Cl)cc2F)[C@H]1c1cccc(Cl)c1F [idasanutlin]
# In short: as §1
# alisertib = compound: COc1cc(Nc2ncc3c(n2)-c2ccc(Cl)cc2C(c2c(F)cccc2OC)=NC3)ccc1C(=O)O [alisertib]
# In short: as §1
# [2] = compound: COc1cc2nc(-c3cc(F)ccc3O)nc(N[C@@H]3CNC[C@H]3C(C)(C)O)c2cc1OC
# In short: as §1
# gefitinib = compound: COc1cc2ncnc(Nc3ccc(F)c(Cl)c3)c2cc1OCCCN1CCOCC1 [gefitinib]
# In short: as §1
# [3] = compound: COc1cccc2cc(-c3nc([C@H]4CC[C@H](C(=O)O)CC4)n4ncnc(N)c34)[nH]c12
# In short: as §1
# lapatinib = compound: CS(=O)(=O)CCNCc1ccc(-c2ccc3ncnc(Nc4ccc(OCc5cccc(F)c5)c(Cl)c4)c3c2)o1 [lapatinib]
# In short: as §1
# pictilisib = compound: CS(=O)(=O)N1CCN(Cc2cc3nc(-c4cccc5[nH]ncc45)nc(N4CCOCC4)c3s2)CC1 [pictilisib]
# In short: as §1
Target,log2 fold change [1],log2 fold change (filanesib),log2 fold change (zotarolimus),log2 fold change (idasanutlin),log2 fold change (alisertib),log2 fold change [2],log2 fold change (gefitinib),log2 fold change [3],log2 fold change (lapatinib),log2 fold change (pictilisib)
ARHGAP17 (UniProt Q68EM7),inactive: -0.005,inactive: 0.07,inactive: 0.094,inactive: 0.101,inactive: 0.317,inactive: 0.027,inactive: -0.003,inactive: -0.113,inactive: -0.017,inactive: -0.175
APAF1 (UniProt O14727),inactive: -0.023,inactive: -0.066,inactive: -0.03,inactive: -0.068,inactive: 0.08,inactive: 0.279,inactive: -0.163,inactive: 0.09,inactive: 0.369,inactive: -0.04
APRT (UniProt P07741),inactive: -0.005,inactive: -0.011,inactive: -0.007,inactive: 0.002,inactive: -0.066,inactive: 0.047,inactive: -0.011,inactive: 0.054,inactive: -0.071,inactive: 0.061
ARF3 (UniProt P61204),inactive: -0.075,inactive: -0.04,inactive: -0.018,inactive: -0.042,inactive: -0.044,inactive: 0.028,inactive: -0.002,inactive: 0.06,inactive: -0.002,inactive: 0.038
ANAPC7 (UniProt Q9UJX3),inactive: 0.028,inactive: 0.013,inactive: 0.063,inactive: -0.005,inactive: -0.134,inactive: -0.001,inactive: -0.03,inactive: -0.055,inactive: 0.023,inactive: -0.051
ARF5 (UniProt P84085),inactive: 0.003,inactive: -0.016,inactive: -0.001,inactive: -0.055,inactive: -0.007,inactive: 0.01,inactive: 0.011,inactive: 0.065,inactive: 0.047,inactive: -0.008
ANK2 (UniProt Q01484),inactive: -0.054,inactive: -0.052,inactive: -0.05,inactive: 0.083,inactive: -0.076,inactive: -0.04,inactive: -0.062,inactive: 0.048,inactive: -0.013,active: 0.532
APH1A (UniProt Q96BI3),inactive: 0.101,inactive: -0.039,inactive: -0.062,inactive: 0.005,inactive: -0.228,inactive: -0.236,inactive: 0.043,inactive: 0.059,inactive: 0.091,inactive: 0.013
ANAPC4 isoform 3 (UniProt Q9UJX5),inactive: -0.054,inactive: 0.026,inactive: 0.039,inactive: -0.004,inactive: -0.091,inactive: -0.025,inactive: -0.018,inactive: 0.002,inactive: 0.044,inactive: -0.024
AP4S1 (UniProt Q9Y587),inactive: -0.039,inactive: 0.029,inactive: 0.126,inactive: -0.061,inactive: -0.098,inactive: -0.002,inactive: -0.083,inactive: 0.036,inactive: -0.047,
ANXA4 (UniProt P09525),inactive: 0.01,inactive: -0.003,inactive: -0.064,inactive: -0.018,inactive: 0.351,inactive: 0.066,inactive: 0.055,inactive: -0.024,inactive: -0.022,inactive: -0.023
ARFGAP2 (UniProt Q8N6H7),inactive: -0.067,inactive: 0.024,inactive: -0.005,inactive: -0.029,inactive: -0.058,inactive: 0.156,inactive: -0.004,inactive: -0.064,inactive: -0.001,inactive: 0.013
ANXA1 (UniProt P04083),inactive: 0.04,inactive: -0.077,inactive: 0.041,inactive: -0.041,inactive: 0.101,inactive: 0.07,inactive: 0.033,inactive: -0.037,inactive: -0.048,inactive: 0.06
ANP32E (UniProt Q9BTT0),inactive: 0.027,inactive: 0.011,inactive: 0.066,inactive: 0.061,inactive: 0.045,inactive: -0.039,inactive: 0.021,inactive: -0.027,inactive: -0.011,inactive: 0.06
AP1M1 (UniProt Q9BXS5),inactive: -0.014,inactive: 0.01,inactive: -0.005,inactive: -0.01,inactive: -0.061,inactive: 0.015,inactive: 0.037,inactive: 0.022,inactive: 0.013,inactive: 0.03
ANP32A (UniProt P39687),inactive: 0.079,inactive: -0.014,inactive: 0.007,inactive: -0.055,inactive: 0.013,inactive: -0.066,inactive: 0.029,inactive: -0.034,inactive: 0.012,inactive: -0.052

Target,log2 fold change [1],log2 fold change (filanesib),log2 fold change (zotarolimus),log2 fold change (idasanutlin),log2 fold change (alisertib),log2 fold change [2],log2 fold change (gefitinib),log2 fold change [3],log2 fold change (lapatinib),log2 fold change (pictilisib)
ANKRD27 (UniProt Q96NW4),inactive: 0.358,,,,,,,,,
AP3M1 (UniProt Q9Y2T2),inactive: 0.023,inactive: -0.04,inactive: 0.001,inactive: -0.054,inactive: -0.037,inactive: 0.008,inactive: -0.043,inactive: -0.006,inactive: 0.011,inactive: -0.034
ANKRD28 (UniProt O15084),inactive: 0.023,inactive: -0.023,inactive: -0.015,inactive: -0.027,inactive: -0.067,inactive: 0,inactive: 0.004,inactive: -0.001,inactive: 0.051,inactive: 0.045
ARG2 (UniProt P78540),inactive: -0.057,inactive: -0.066,inactive: -0.08,inactive: -0.066,inactive: 0.04,inactive: -0.033,inactive: -0.025,inactive: 0.092,inactive: 0.018,inactive: 0.027
ARF4 (UniProt P18085),inactive: 0.007,inactive: -0.061,inactive: 0.006,inactive: -0.153,inactive: -0.023,inactive: 0.17,inactive: -0.005,inactive: 0.019,inactive: 0.037,inactive: 0.035
ANGEL1 (UniProt Q9UNK9),inactive: 0.024,,,,,,,,,
ANXA2 (UniProt H0YMT9),inactive: -0.204,,,,,,,,,
AP3S1 (UniProt Q92572),inactive: 0.019,inactive: 0.037,inactive: -0.027,inactive: -0.006,inactive: -0.006,inactive: 0.077,inactive: -0.012,inactive: -0.043,inactive: -0.008,inactive: -0.026
ANKRD17 (UniProt O75179),inactive: 0.003,inactive: 0.182,inactive: 0.004,inactive: 0.083,inactive: 0.487,inactive: 0.106,inactive: 0.076,inactive: -0.134,inactive: -0.032,inactive: 0.016
AP1S1 (UniProt P61966),inactive: -0.103,inactive: -0.001,inactive: 0.034,inactive: -0.1,inactive: -0.048,inactive: -0.033,inactive: -0.009,inactive: 0.018,inactive: 0.006,inactive: 0.043
ANK3 (UniProt Q12955),inactive: 0.063,inactive: 0.109,inactive: -0.069,inactive: 0.05,inactive: -0.187,inactive: -0.032,inactive: 0.047,inactive: 0.03,inactive: 0.04,inactive: 0.083
APOC1 (UniProt P02654),inactive: -0.108,inactive: 0.077,inactive: -0.019,inactive: -0.017,inactive: -0.012,inactive: -0.053,inactive: 0.039,inactive: 0.045,inactive: 0.013,inactive: 0.024
ARHGEF1 isoform 3 (UniProt Q92888),inactive: 0.006,inactive: 0.197,inactive: 0.077,inactive: 0.126,inactive: -0.053,inactive: -0.031,inactive: 0.031,inactive: -0.111,inactive: 0.021,inactive: 0.007
ANKFY1 isoform 4 (UniProt Q9P2R3),inactive: -0.099,inactive: -0.183,inactive: 0.027,inactive: -0.026,inactive: -0.019,inactive: -0.123,inactive: 0.05,inactive: -0.075,inactive: -0.022,inactive: -0.185
ARHGAP45 isoform 2 (UniProt Q92619),inactive: -0.012,inactive: 0.036,inactive: -0.043,inactive: 0.08,inactive: -0.011,inactive: -0.026,inactive: 0.072,inactive: 0.089,inactive: 0.001,inactive: 0.076
ARHGDIA (UniProt P52565),inactive: -0.048,inactive: 0.009,inactive: 0.054,inactive: -0.08,inactive: -0.052,inactive: -0.018,inactive: 0.018,inactive: -0.022,inactive: -0.014,inactive: 0.059

# Some of the entries so far, tab-delimited.
Target	log2 fold change [1]	log2 fold change (filanesib)	log2 fold change (zotarolimus)	log2 fold change (idasanutlin)	log2 fold change (alisertib)	log2 fold change [2]	log2 fold change (gefitinib)	log2 fold change [3]	log2 fold change (lapatinib)	log2 fold change (pictilisib)
AP1S1 (UniProt P61966)	inactive: -0.103	inactive: -0.001	inactive: 0.034	inactive: -0.1	inactive: -0.048	inactive: -0.033	inactive: -0.009	inactive: 0.018	inactive: 0.006	inactive: 0.043
ANKFY1 isoform 4 (UniProt Q9P2R3)	inactive: -0.099	inactive: -0.183	inactive: 0.027	inactive: -0.026	inactive: -0.019	inactive: -0.123	inactive: 0.05	inactive: -0.075	inactive: -0.022	inactive: -0.185
